Measured values as given in US20230201550A1, “SYSTEMS AND METHODS FOR TREATING PERSISTENT PAIN OF NEUROGENIC ORIGIN AND COMPLEX INJURY” (Nova Neura, LLC, priority 2020, published 2023).
For at least one compound, name, drawing or mass did not settle the structure.

Test system: pain and inflammation caused by neurogenic inflammation
Assay: Topical application of therapeutic compound to users for pain and neurogenic inflammation
Format: in vivo, human

SMILES: COc1cc(/C=C/c2ccc(O)cc2)cc(OC)c1 [Pterostilbene]
- analgesic / therapeutic effect of the topical compound: particularly favorable and synergistic
